# Assay results taken from patent publication US6319929A, “Suksdorfin analogs, compositions thereof, and methods for making and using thereof” (priority 1998, dated 2001).
# At least one structure is not confirmed: it was looked up by name or label, or the drawing left a doubt.
# Tests used:
# [1] = system: HIV-2 replication in HUT-78 cells; assay: Suppression of virus replication during HIV-2 infection of HUT-78 cells (reverse transcriptase assay); format: cell-based
# From the text: During this experiment, HIV-2 was used. The basic assay system is identical to that used for HIV-1 except that a different virus stock was used and rather than a p24 antigen ELISA determination a reverse transcriptase assay was used to detect the presence of the virus.
# [2] = system: HIV-1 replication in fresh elutriated monocytes; assay: HIV-1 infection of primary elutriated monocytes (p24 antigen); format: cell-based
# From the text: In order to determine if compound 16 suppressive activity was limited to only fresh T cells infected with HIV-1, elutriated monocytes were infected with HIV-1 and then cultured with various concentrations of compound 16 or AZT. […] This illustrates that the effect of the drμg is not only limited to T cells but also can effect virally infected monocytes.
# [3] = system: chronically HIV-1 infected ACH-2 cells; assay: Virus expression from chronically HIV-1 infected T cell line ACH-2 (p24 antigen ELISA); format: cell-based
# Description: (§1) Effects of suksdorfin analogs on Chronically HIV-1 infected cells. The experimental design is as follows: The phorbol ester, PMA (10^-8 M) and various concentrations of suksdorfin were either added or not added to both the chronically HIV-1 infected T cell line (ACH-2) and to the chronically HIV-1 infected monocytic cell line (U1). Cell-free supernatant was collected 72 hours post culture for p24 antigen ELISA.
# Results (Table 11) from adding compound 16 to the chronically HIV-infected T cell line, ACH-2, according to methods in above examples. ACH-2 are a chronically HIV-1 infected T cell line. It was derived from A3.01 cells which is a subclone of the CEM cell line. The data below indicates the following points:
# (§2) Chronically HIV-1 infected cell lines. HIV-1 chronically infected T cell line, ACH-2^12, and HIV-1 chronically infected promonocytic cell line, U1 13, were continuously maintained in RPMI 1640 with 10% fetal calf serum (FCS). For experiments, the cell lines were only used in the […] of growth. Cells (0.5×10^6 cells/well) and either various concentrations of suksdorfin or medium alone were added to 24-well plates in the presence or absence of PMA (10^-8 M). After 72 hours at 37° C. and 5% CO2, an aliquot of the cell-free supernatants were collected and analyzed for p24 antigen by ELISA (see below for details of p24 antigen ELISA).
# [4] = system: chronically HIV-1 infected U1 cells; assay: Virus expression from chronically HIV-1 infected monocytic cell line U1 (p24 antigen ELISA); format: cell-based
# Description: as §1
# Compound 16 was also assayed on ACH-2 (chronically HIV-1 infected T cell line). U1 cells are also chronically HIV-1 infected cells but they are from the monocytic cell line, U937. The data presented in Table 8 indicates the following points:
# as §2
# [5] = system: HIV-1 replication in fresh monocytes; assay: HIV-1 infection of fresh monocytes obtained by adherence (p24); format: cell-based; conditions: suksdorfin at 20 and 4 μg/ml; AZT positive control
# From the text: Results (Table 12) from adding Suksdorfin to fresh monocytes infected with HIV-1.
# The monocytes which were used for this experiment were obtained by adherence and not by elutriation; therefore, this cell population is not as pure as what was used for the 16 monocyte data above.
# [6] = system: chronically HIV infected cells; conditions: in the literature; cited from earlier work
compound,measurement,setting,value
"Cc1cn([C@H]2C[C@H](N=[N+]=[N-])[C@@H](CO)O2)c(=O)[nH]c1=O [AZT, azidothymidine, reference compound]",effect on HIV-2 replication (in words),[1],inhibited HIV-2 replication
same,suppression of HIV-1 replication in fresh elutriated monocytes (in words),[2],inhibited HIV-1 replication in the human monocytes
same,effect on virus expression of PMA-stimulated ACH-2 cells (in words),[3]; with PMA,identical
same,induction of virus expression from ACH-2 cells (in words),[3]; without PMA,the same for AZT
same,effect on virus expression of PMA-stimulated U1 cells (in words),[4]; with PMA,identical
same,induction of virus expression from U1 cells (in words),[4]; without PMA,the same for AZT
same,suppression of HIV-1 replication in fresh monocytes (in words),[5],suppressive
same,effect on chronically HIV infected cells,[6],does not have an effect on chronically HIV infected cells
